Test results as given in paper PMC6470170.
No constants are given. Whether binding was seen depends on the method and setting. In cells and extracts the contact can be indirect.

Protein sequences, listed by entry. Tags and fused reporters are not part of them. Residues count along the entry.
UniProt P97952, residues 19-218: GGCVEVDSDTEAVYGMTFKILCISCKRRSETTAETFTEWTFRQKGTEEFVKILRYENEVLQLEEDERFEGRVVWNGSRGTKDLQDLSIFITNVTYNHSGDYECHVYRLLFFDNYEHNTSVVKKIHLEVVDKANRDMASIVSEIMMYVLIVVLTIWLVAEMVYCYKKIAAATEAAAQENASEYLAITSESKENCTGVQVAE

Experiments:
Test in all cases: co-IP; solubilized Scn1b WT mouse total brain membranes (~1 mg membrane proteins per tube); antibody-conjugated protein A-sepharose beads, 4-6 h at 4 °C in dilution buffer (60 mM Tris-HCl pH 7.5, 180 mM NaCl, 1% Triton X-100, 6 mM EDTA) with octyl-β-D-glucopyranoside; immunoblot; done in both directions; non-immune rabbit IgG control
[1] = molecular target: T1, Na+, K+-2Cl- co-transporter-1 (NKCC1) (mouse (endogenous in mouse brain)) (UniProt P55012)
T1 sequence: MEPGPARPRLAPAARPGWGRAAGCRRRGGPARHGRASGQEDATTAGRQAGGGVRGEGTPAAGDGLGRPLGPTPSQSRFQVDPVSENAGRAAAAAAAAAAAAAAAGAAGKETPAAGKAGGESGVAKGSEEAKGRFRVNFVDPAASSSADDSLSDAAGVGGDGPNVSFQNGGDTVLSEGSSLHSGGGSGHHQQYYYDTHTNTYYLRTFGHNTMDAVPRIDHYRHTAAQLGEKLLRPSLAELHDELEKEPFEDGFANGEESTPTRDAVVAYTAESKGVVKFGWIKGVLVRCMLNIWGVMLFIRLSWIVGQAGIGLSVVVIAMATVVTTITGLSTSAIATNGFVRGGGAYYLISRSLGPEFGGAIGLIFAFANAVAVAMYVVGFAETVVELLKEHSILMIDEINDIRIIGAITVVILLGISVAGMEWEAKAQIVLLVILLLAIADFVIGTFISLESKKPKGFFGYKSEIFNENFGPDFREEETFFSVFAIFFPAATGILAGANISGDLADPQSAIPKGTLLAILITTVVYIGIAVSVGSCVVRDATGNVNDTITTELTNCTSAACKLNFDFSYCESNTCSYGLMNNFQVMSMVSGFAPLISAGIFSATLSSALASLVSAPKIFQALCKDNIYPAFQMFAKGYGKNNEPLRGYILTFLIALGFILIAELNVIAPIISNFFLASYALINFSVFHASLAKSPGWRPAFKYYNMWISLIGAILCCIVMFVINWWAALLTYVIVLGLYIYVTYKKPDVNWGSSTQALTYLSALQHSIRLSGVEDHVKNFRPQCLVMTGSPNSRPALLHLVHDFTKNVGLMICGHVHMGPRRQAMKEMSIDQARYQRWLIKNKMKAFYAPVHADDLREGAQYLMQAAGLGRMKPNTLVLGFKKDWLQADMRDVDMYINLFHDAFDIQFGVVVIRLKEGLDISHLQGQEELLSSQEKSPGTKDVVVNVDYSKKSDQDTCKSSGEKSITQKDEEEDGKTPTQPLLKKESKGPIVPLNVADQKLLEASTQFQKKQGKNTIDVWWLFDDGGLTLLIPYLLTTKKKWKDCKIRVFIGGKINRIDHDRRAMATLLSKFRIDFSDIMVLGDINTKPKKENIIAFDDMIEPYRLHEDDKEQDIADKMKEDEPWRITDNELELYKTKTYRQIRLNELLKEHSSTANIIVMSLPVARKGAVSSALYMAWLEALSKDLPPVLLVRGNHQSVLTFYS

[2] = molecular target: T2, K+-Cl- co-transporter-2 (KCC2) (mouse (endogenous in mouse brain)) (UniProt Q91V14)
T2 sequence: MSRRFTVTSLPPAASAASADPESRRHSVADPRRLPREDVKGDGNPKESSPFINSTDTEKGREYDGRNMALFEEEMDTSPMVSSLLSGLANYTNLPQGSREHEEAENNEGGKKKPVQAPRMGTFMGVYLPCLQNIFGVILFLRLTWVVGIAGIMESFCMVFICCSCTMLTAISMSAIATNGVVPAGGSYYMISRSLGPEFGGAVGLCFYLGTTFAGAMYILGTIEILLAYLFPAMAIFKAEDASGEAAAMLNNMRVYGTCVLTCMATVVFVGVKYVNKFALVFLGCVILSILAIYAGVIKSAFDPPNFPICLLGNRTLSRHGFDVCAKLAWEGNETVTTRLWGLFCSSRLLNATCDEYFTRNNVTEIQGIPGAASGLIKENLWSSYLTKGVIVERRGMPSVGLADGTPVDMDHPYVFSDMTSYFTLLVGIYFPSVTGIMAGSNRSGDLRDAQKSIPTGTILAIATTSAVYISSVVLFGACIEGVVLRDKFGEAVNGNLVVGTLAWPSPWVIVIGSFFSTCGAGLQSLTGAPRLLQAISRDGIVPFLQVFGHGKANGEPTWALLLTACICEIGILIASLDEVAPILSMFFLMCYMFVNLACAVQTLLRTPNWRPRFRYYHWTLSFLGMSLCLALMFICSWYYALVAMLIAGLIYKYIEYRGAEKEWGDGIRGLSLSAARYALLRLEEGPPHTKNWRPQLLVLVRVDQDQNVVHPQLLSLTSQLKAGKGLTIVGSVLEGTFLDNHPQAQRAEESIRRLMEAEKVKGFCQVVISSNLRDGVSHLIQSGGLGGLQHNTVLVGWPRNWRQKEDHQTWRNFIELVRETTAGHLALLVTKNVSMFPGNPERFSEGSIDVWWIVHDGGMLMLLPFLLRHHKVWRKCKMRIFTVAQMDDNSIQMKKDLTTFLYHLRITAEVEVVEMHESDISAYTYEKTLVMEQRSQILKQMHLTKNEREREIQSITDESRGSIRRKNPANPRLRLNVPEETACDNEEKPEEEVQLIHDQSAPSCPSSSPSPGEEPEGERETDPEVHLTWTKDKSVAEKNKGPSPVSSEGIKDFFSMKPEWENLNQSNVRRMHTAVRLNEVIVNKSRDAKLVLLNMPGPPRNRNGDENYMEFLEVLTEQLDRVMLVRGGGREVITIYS

[3] = molecular target: voltage-gated sodium channel (VGSC) β1 subunit (mouse (endogenous in mouse brain)) (UniProt P97952)

Row | Molecule | binding [1] | binding [2] | binding [3]
1 | voltage-gated sodium channel (VGSC) β1 subunit (from UniProt P97952 19-218) | no binding | no binding | 
2 | K+-Cl- co-transporter-2 (KCC2) (protein, UniProt Q91V14 1-1138) MSRRFTVTSLPPAASAASADPESRRHSVADPRRLPREDVKGDGNPKESSPFINSTDTEKGREYDGRNMALFEEEMDTSPMVSSLLSGLANYTNLPQGSREHEEAENNEGGKKKPVQAPRMGTFMGVYLPCLQNIFGVILFLRLTWVVGIAGIMESFCMVFICCSCTMLTAISMSAIATNGVVPAGGSYYMISRSLGPEFGGAVGLCFYLGTTFAGAMYILGTIEILLAYLFPAMAIFKAEDASGEAAAMLNNMRVYGTCVLTCMATVVFVGVKYVNKFALVFLGCVILSILAIYAGVIKSAFDPPNFPICLLGNRTLSRHGFDVCAKLAWEGNETVTTRLWGLFCSSRLLNATCDEYFTRNNVTEIQGIPGAASGLIKENLWSSYLTKGVIVERRGMPSVGLADGTPVDMDHPYVFSDMTSYFTLLVGIYFPSVTGIMAGSNRSGDLRDAQKSIPTGTILAIATTSAVYISSVVLFGACIEGVVLRDKFGEAVNGNLVVGTLAWPSPWVIVIGSFFSTCGAGLQSLTGAPRLLQAISRDGIVPFLQVFGHGKANGEPTWALLLTACICEIGILIASLDEVAPILSMFFLMCYMFVNLACAVQTLLRTPNWRPRFRYYHWTLSFLGMSLCLALMFICSWYYALVAMLIAGLIYKYIEYRGAEKEWGDGIRGLSLSAARYALLRLEEGPPHTKNWRPQLLVLVRVDQDQNVVHPQLLSLTSQLKAGKGLTIVGSVLEGTFLDNHPQAQRAEESIRRLMEAEKVKGFCQVVISSNLRDGVSHLIQSGGLGGLQHNTVLVGWPRNWRQKEDHQTWRNFIELVRETTAGHLALLVTKNVSMFPGNPERFSEGSIDVWWIVHDGGMLMLLPFLLRHHKVWRKCKMRIFTVAQMDDNSIQMKKDLTTFLYHLRITAEVEVVEMHESDISAYTYEKTLVMEQRSQILKQMHLTKNEREREIQSITDESRGSIRRKNPANPRLRLNVPEETACDNEEKPEEEVQLIHDQSAPSCPSSSPSPGEEPEGERETDPEVHLTWTKDKSVAEKNKGPSPVSSEGIKDFFSMKPEWENLNQSNVRRMHTAVRLNEVIVNKSRDAKLVLLNMPGPPRNRNGDENYMEFLEVLTEQLDRVMLVRGGGREVITIYS |  |  | no binding
3 | Na+, K+-2Cl- co-transporter-1 (NKCC1) (protein, UniProt P55012 1-1205) MEPGPARPRLAPAARPGWGRAAGCRRRGGPARHGRASGQEDATTAGRQAGGGVRGEGTPAAGDGLGRPLGPTPSQSRFQVDPVSENAGRAAAAAAAAAAAAAAAGAAGKETPAAGKAGGESGVAKGSEEAKGRFRVNFVDPAASSSADDSLSDAAGVGGDGPNVSFQNGGDTVLSEGSSLHSGGGSGHHQQYYYDTHTNTYYLRTFGHNTMDAVPRIDHYRHTAAQLGEKLLRPSLAELHDELEKEPFEDGFANGEESTPTRDAVVAYTAESKGVVKFGWIKGVLVRCMLNIWGVMLFIRLSWIVGQAGIGLSVVVIAMATVVTTITGLSTSAIATNGFVRGGGAYYLISRSLGPEFGGAIGLIFAFANAVAVAMYVVGFAETVVELLKEHSILMIDEINDIRIIGAITVVILLGISVAGMEWEAKAQIVLLVILLLAIADFVIGTFISLESKKPKGFFGYKSEIFNENFGPDFREEETFFSVFAIFFPAATGILAGANISGDLADPQSAIPKGTLLAILITTVVYIGIAVSVGSCVVRDATGNVNDTITTELTNCTSAACKLNFDFSYCESNTCSYGLMNNFQVMSMVSGFAPLISAGIFSATLSSALASLVSAPKIFQALCKDNIYPAFQMFAKGYGKNNEPLRGYILTFLIALGFILIAELNVIAPIISNFFLASYALINFSVFHASLAKSPGWRPAFKYYNMWISLIGAILCCIVMFVINWWAALLTYVIVLGLYIYVTYKKPDVNWGSSTQALTYLSALQHSIRLSGVEDHVKNFRPQCLVMTGSPNSRPALLHLVHDFTKNVGLMICGHVHMGPRRQAMKEMSIDQARYQRWLIKNKMKAFYAPVHADDLREGAQYLMQAAGLGRMKPNTLVLGFKKDWLQADMRDVDMYINLFHDAFDIQFGVVVIRLKEGLDISHLQGQEELLSSQEKSPGTKDVVVNVDYSKKSDQDTCKSSGEKSITQKDEEEDGKTPTQPLLKKESKGPIVPLNVADQKLLEASTQFQKKQGKNTIDVWWLFDDGGLTLLIPYLLTTKKKWKDCKIRVFIGGKINRIDHDRRAMATLLSKFRIDFSDIMVLGDINTKPKKENIIAFDDMIEPYRLHEDDKEQDIADKMKEDEPWRITDNELELYKTKTYRQIRLNELLKEHSSTANIIVMSLPVARKGAVSSALYMAWLEALSKDLPPVLLVRGNHQSVLTFYS |  |  | no binding
